Results reported in paper PMC4977709.
The exact form of at least one protein or probe is not confirmed. The comparison behind a weaker result is the experiment's own reference, which may not be listed here. Tags and fusion partners may be left off the protein sequences shown. At least one verdict rests on a figure or table, not on a statement of the authors.

Biological target: T1, BarR (Sulfolobus acidocaldarius) (UniProt Q4J717)
T1 sequence (looked up, limits assumed): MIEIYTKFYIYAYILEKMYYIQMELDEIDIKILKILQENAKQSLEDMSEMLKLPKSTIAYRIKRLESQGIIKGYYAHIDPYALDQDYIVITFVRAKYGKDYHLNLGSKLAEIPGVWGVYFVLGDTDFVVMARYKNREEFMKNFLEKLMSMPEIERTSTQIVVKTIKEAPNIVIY
Assay: EMSA
Settings: EMSA with 32P-labelled PCR fragments, excess non-specific competitor DNA, BarR 0.25/1.25/2.5 uM, with or without 1 mM beta-alanine, recombinant protein, protein details: His-tag, label: 5'-32P on one strand, probe letters rebuilt from the primers and the genome

[1] = no beta-alanine, 0.25-2.5 uM BarR

| Sequence | binding result [1] | binding result (1 mM beta-alanine) |
| --- | --- | --- |
| GAGACCCAAACGCTGTTCATCATTATATCTGGTATTGGTATTATGTAGACTTTTGACAGATCTAAATTTTCTTTGTCCAGCGTTCTTCTTATCATTTCTATACGTTCTCCTGCAGTAAATGGATTGGATAGTGTATGACTCTCCTGAGCACTTCCTATAACTATGATTAATTCATCAACATGTTTCATTGACCATTTTACAACCTCTAAGTGACCTATGTGGAATGGTTGGAATCTTCCTGGATATAAGCCTCTATGCAAACATCTTCACCTTCTTTTACTCCCAAAATATTTGAAGCACTGCTCATATTAATTCCAATCTCTATAAATCCGTAACCATTGCTGTATAAAACTAATTCATTTTCCTTTCC (double strand) [Saci0720 target] | binds more weakly | – |
| CAACACTGATATACCAAGGATAAGATAATAAACAATATCCCATTTTTATAAGTTTTATTCTTTTTTATACTACTCCCCTAAATATTTAATTATACTATGTATAAGGAGTTTTAATTTTAGTCCATAAACATTCATTTAATCTTAATCCAAAATATACTAAGACTGTATTGGAAAATTTTCAATTTTACTTAAGTTATATTAAACTGTATACAAGTTTATTATACTAAAATAAAGGTGAATATGATAGTTAAAGTTTTTAAAATTCTTACAAAACTATTTTTAGTCGTAATAAATAAAAAATATCATTCCTAAGGGGTTGAGATTTAAATAGC (double strand) [Saci2319 target] | binds | binds more weakly |
| CCATAAGAACTTTATCACCTAGCACTGTCTCATATACTCTCATATTTCCAATTTGCCTAATACTAGGTCTTGAAAAGAAACTGGATATAGTTTTAGCTTTATTGGGAGATTCTACAACGAGGAGAACAGTCTTTACTTTTTGCAGTGCAGGCGCAACATTACCCTCATTTTTTAGTTTCGATATCTCATTCCTCTCTTCATTAATTTTTGAAATTAGATTCTTTATTTCTACGTCTCCTGCTGTCCACTTTTCAACATCTAATTCTCGCCATTGTATATCATCTAATATGTATTGCAACTTTTTATTTAGAAGTCTAAACAAATTAAAATCATCGACTAATAGAATAGATAGACCAGTGGTAACGTCTCCTGCATATATCCTGGACGTTCTTCCGCTAGCCTGAACATAGGTAAGATAGTCTGGAATCAGTATATCATTATCAGGAGATAATACGAAATCTCCTATCTCGCTTATTCTCTTCAGTACATTTTGATTACTAAG (double strand) [Saci0839 target] | binds | binds more weakly |
| GGTCAAGTACAAATAGACCACCTGTAGGATACTTCTCCTCTAAATTCATTGTCCCTATCCAATATCTTCCCATCTGATCACACTTTCCGTCGTTAAACCTGTTCCTAGAATCCCAGTCTTTAACCTCATATAATAAGGAGATTTGATCCTTATCTTTTACTAAGTAAAATCCGTTTCCTGCAGTGACTATTATGCCACCTCTTTTAGTAGGTTGTAATGAACTAACATAAGTTGGAAATTTTACAGCCCAATGTGTGCCATCTTCTTTCAGATTGTGCAATTCTCCCTTGGGTATATCAACGAAGTACAATGAGTTATATGCCCATATAGGACCTTCATACAATTTCCCCTTCTGATTAAATATCCTGATCATTAGTTTATCACCTCATTCAT (double strand) [Saci1674 target] | binds | binds |
| GAGGGCTTAAGAGAGCTAATGTAAAGCAGGGGGATATAGTTTTAGTGACTGGTGCAGGAGGTGGTGTTGGTATTCATGCCCTTCAGGTTGCTAAAGCTTTAGGAGCAAAAGTAGTAGGAGTAACAAGTGAAGAGAGTAAGGCTAAGATCGTTGGAAAATTTTCAGATTACGTGGTAGTTGGGAACAAGTTTGCTGAAGAGGTTAGAAAGGGATTTGGAGAACCTTCAATAGTAGTGGACAATGTAGGAGGTCCTACTCTTGATGAGAGTATGAGGTCACTGAAAATAGGTGGTAAGATAGTACAAGTAGGGAATATTGATCCCTCTGTCAATTTCAGTCTAAGGCTAGGTTACTTAGTCCTAAAGAATGTTGAGTTAATTGGACATGCCGGGGC (double strand) [Saci1115 target] | binds | binds |
| GAGGTTCTTGATAGGTAATAGAAAGTTTGAATTTAAAGTTGAAAATAGAAGGGTTAAGATACTAGAATTACTACTAAAAAGATCTATAAACACTATAATAGAAAGGTTCATTATACAGAATAAAAATGAGATAGACGTAGAGTTAAATAAAAATCACAGAATTAAGCTTCTTATTGAGAAATATACAAAAATCATAGGCAGTATATTAGAAAATCAACAGAAGGCTTAATTTTACTGAGAATAAGTCCACTTCTTACTCTTTTTCAGCTAAGCCTAACAAAAAATCCTCTAAACCGTTTTCCAGTTTATATGTACCCAACTCTGTTTTCCACACTTTGCTCACTTTTGCATACCTAATAAATGAGGATCCCTGAATTAGCCAAGGCTGAGTAGCAAAGAGAGTAATGAACTTCTTAAACTCGTCTATTAAAAACACTTTACCAGGAGATACGATAAAGAGACAATCTACGTTTAAAGAACTATAGTTAGGAGCTAAGGCGTCATTATAAGACTCAATTAAAACATTAG (double strand) [Saci0061 target] | binds | binds more weakly |
| GCGATAGTATTTTCACAGGGTAAGAGCTTTATCCAGTAAACGTAAAATTTTTAAATAAATAAGTAAATTTCTCTCCACTCATCACTTAATCTTATTTTATCGTATTTAAGAAAAATTTTAAATAGTAGTAAATTAAACAATGTTTAAGGTCTCGTTGGATGGTATATAGAGTTAGCATTCTAGGTGTTAAGGGAGGAGTTGGAAAGTCTACAATAGCTTTGTCCCTTGGAAAGGCTCTAGCCTTGAAGGGAAAGAAAGTTCTTTTGATAGAAAGAGATATGGTAGGTTATGCATCATTCGCATTCGGAATTAAAAGAAAGGGTATATTGGCTAAATTAGCCGATGGAGAAGAACATTTTGAAGAAAG (double strand) [Saci1050 target] | binds more weakly | – |
| CACCTAGCTGAAAAGTCCATCATCCTCTATTTATTTCCCCTTCCTTTTATCTTCCTTTACTCTATCTATGAGGTCAGTAATATCTGGTCTAATCTTATCTAACTGTTCCAACAACTCTAGGTATCTTTTGGATTTTTCTAACACATTTCTCCCCTTCGGAGCTAAGATGTATTCTCTGGTACTCGGTTCAAAATAGATAAGACCACTCTCCTCTAGTACCTTCATATATTTGTAAAATGGGCGAGAACTCAAATTAGTAACATATAACAACTTTGTCTTTTTGACACCAGATCTACACCCTTCTAATATGCTGATAACTATTTGTATTGAACTCCTTTTCTTTCTCCGCATACTGACATCTCTTTATCCCTATATTCTCGTCGTCTAACATAATAAAGTTTTGTATAACATTTAATTTAATGGCACTTG (double strand) [Saci1796 target] | binds | binds |
